From PubChem BioAssay record AID1159506 (NCATS, 2015).

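Luminescence from an EWS-FLI1 target-promoter (NR0B1) reporter, set against a CMV-promoter reporter, two days after silencing single genes in TC32 Ewing sarcoma cells. Each siRNA was applied at 20 nM. A z-score of the log NR0B1-over-CMV signal, less the median of siRNAs with the same seed; more negative means a stronger specific loss of the NR0B1 reporter.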

The strongest results of the screen are mostly left out here. Sequences are the guide (antisense) strand, without overhang.

strand: AAGGCAAAAGUUAUUGGGC
target gene: TMEM155
seed-corrected z-score: 0.4663

strand: UCUGAGGCCGUUGUAUCCC
target gene: CEACAM19
seed-corrected z-score: -0.1808

strand: UAGGCAAACACUUCACAGC
target gene: KAZALD1
seed-corrected z-score: 1.91

strand: UAUGCUACUGGUGUAGAUG
target gene: HSD3B1
seed-corrected z-score: -0.1025

strand: AGAUUGUCAAUAAUGUUCC
target gene: IDH3B
seed-corrected z-score: 0.07006

strand: UUCUUUGUUGGGACUCUCU
target gene: REEP5
seed-corrected z-score: -0.131

strand: UAAGGUCAUCAAUUAUUGG
target gene: KRT25
seed-corrected z-score: 1.792

strand: UCAGAAUGGAGGUAAUGUC
target gene: MOSPD3
seed-corrected z-score: 0.7715

strand: UGUUGUUACACUGACCGGC
target gene: DNHD1
seed-corrected z-score: -0.02512

strand: UCUCUCACCAUUAUCACGG
target gene: WBP11
seed-corrected z-score: -0.04428

strand: UUCUGAACAGGUCAUAAAU
target gene: OR4F29
seed-corrected z-score: 0.8673

strand: UCACUGACACUAGAUAGUG
target gene: TMEM38B
seed-corrected z-score: -0.8851

strand: AACUCUUCUUGUGAAAGUC
target gene: LOC729254
seed-corrected z-score: 0.4711

strand: UCAGGUUCCUCUUUAGGUG
target gene: RPL27AP2
seed-corrected z-score: -1.967

strand: UAAAGGUAAACAAUUCUAU
target gene: RPL34
seed-corrected z-score: -1.815

strand: UAUACGUCAAUAUUCCUUG
target gene: DDX53
seed-corrected z-score: 0.0006389

strand: AAAACAGCAAGUUUACAUG
target gene: CKS1B
seed-corrected z-score: 0.6372

strand: UGAAAAUCACGUCCCAUGC
target gene: CYP11A1
seed-corrected z-score: -0.6459

strand: UCAAUUCAUAGCAUGGUUU
target gene: IFNA8
seed-corrected z-score: 0.4891

strand: AAUUGUUCUGUCGAGUAGC
target gene: SCAMP3
seed-corrected z-score: 1.099

strand: UUUUUAAUUGCAUCCUUGG
target gene: DSTN
seed-corrected z-score: 0.9339

strand: UAACAGCUCAUGGUAUUCC
target gene: OSBP
seed-corrected z-score: -1.083

strand: UACACCUUAAUGAUCUCCU
target gene: TUFT1
seed-corrected z-score: 0.6626

strand: UCUAAGUAAUCAUCAGUUC
target gene: GDI2
seed-corrected z-score: -0.02233

strand: UUUAGUGAGUGGAUGAUGU
target gene: FADS1
seed-corrected z-score: 0.9018

strand: UUAACUCUAAGUCAUAAAG
target gene: BAAT
seed-corrected z-score: 0.7364

Repeated from the top, 3 entries:

| strand | target gene | seed-corrected z-score |
|---|---|---|
| `AAGGCAAAAGUUAUUGGGC` | TMEM155 | 0.4663 |
| `UCUGAGGCCGUUGUAUCCC` | CEACAM19 | -0.1808 |
| `UAGGCAAACACUUCACAGC` | KAZALD1 | 1.91 |